In US20150239990A1 (published 2015):
No constants are given. Whether binding was seen depends on the method and setting. Some binding calls cover weakened binding; strength is not graded here. Tags and fused reporters may be left off the sequences shown.

Amino acid sequences for entries named in this document (tags omitted). Residues count along the entry.
UniProt P01584, residues 117-269: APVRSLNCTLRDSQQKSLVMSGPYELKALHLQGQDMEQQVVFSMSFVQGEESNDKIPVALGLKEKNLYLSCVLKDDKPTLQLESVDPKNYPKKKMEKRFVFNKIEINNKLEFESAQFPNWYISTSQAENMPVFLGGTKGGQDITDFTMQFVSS

Molecular target: T1, biotinylated human IL-1Beta (human, UniProt P01584 117-269, biotinylated (positions not stated))
T1 construct: In the assays it was biotinylated; also called biot-IL-1Beta
Test: phage ELISA: biotinylated IL-1Beta captured on neutravidin, crude phage, anti-M13-HRP
Description: Four clones for each Fab were tested to overcome clonal variation (due to bacterial growth, phage production efficiency and toxicity etc. . . . ). Phage ELISA was performed by capturing of biotinylated IL-1Beta on neutravidin coated Maxisorp plate and subsequent incubation of crude phage extract (i.e. bacterial medium). After extensive washing, bound phages were detected with an anti-M13-HRP monoclonal antibody.

B1: safe variant 1F2 (partially humanized, fused to human C-lambda and CH1), Fab displayed on phage (Fab, V domains shown)
VH: EVQLLESGGGLVQPGGSLRLSCAASGFTFSTYAMSWVRQAPGKGPEWVSGINTGGGSTGYADSVKGRFTISRDNSKNTLYLQMNSLRPEDTAVYYCAKDWMATTPWGQGTQVTVSS
VL: QTVVTQEPSFSVSPGGTVTLTCGLSSGSVTTNNYPGWFQQTPGQAPRTLIYNTNNRHSGVPSRFSGSILGNKAALTITGAQADDESDYYCALYMSSGSNNAVFGGGTKLTVLG
notes: also called safe 1F2
- binding: binds
